Reference: patent US20230312741A1
Substitutions are numbered along the chain they refer to. No constants are given. Whether binding was seen depends on the method and setting. Some results given as binding are weak or reduced against the parent protein; the word gives no strength.

B1: scfv fragment of ADI-37503 (scFv, V domains shown)
VH: EVQLLESGGGLVQPGGSLRLSCAASGFTFSNYAMSWVRQAPGKGLEWVSAISGRASSTYYADSVKGRFTISRDNSKNTLYLQMNSLRAEDTAVYYCARGGPYGSGSYWDTFDYWGQGTLVTVSS
VL: EIVMTQSPATLSVSPGERATLSCRASQSVSSNLAWYQQKPGQAPRLLIYGASTRATGIPARFSGSGSGTEFTLTISSLQSEDFAVYYCQQYTNHYTFGGGTKVEIK
B2: scfv fragment of ADI-37507 (scFv, V domains shown)
VH: B1 VH with S30L, S35A, S56T
VL: B1 VL
B3: scfv fragment of ADI-37505 (scFv, V domains shown)
VH: B1 VH with E1Q, L5V, S35T, A55G, S56T, S57A
VL: B1 VL
B4: scfv fragment of ADI-37506 (scFv, V domains shown)
VH: B1 VH with Y32L, S56T
VL: B1 VL
B5: scfv fragment of ADI-37504 (scFv, V domains shown)
VH: B1 VH with S30H, R54T, A55G, S56R, S57A
VL: B1 VL
B6: scfv fragment of ADI-37513 (scFv, V domains shown)
VH: EVQLLESGGGVVQPGRSLRLSCAASGFTFNFYGMHWVRQAPGKGLEWVAVINDEGINKYYADSVKGRFTISRDNSKNTLYLQMNSLRAEDTAVYYCARGGARYPIAFDIWGQGTMVTVSS
VL: DIQLTQSPSSVSASVGDRVTITCRASQDISSWLAWYQQKPGKAPKLLIYAASSLQSGVPSRFSGSGSGTDFTLTISSLQPEDFATYYCQQANDFPITFGGGTKVEIK
B7: scfv fragment of ADI-37522 (scFv, V domains shown)
VH: B6 VH with E1Q, L5V, N30S, F31H, N52S, I56S, G100W, A101L
VL: B6 VL
B8: scfv fragment of ADI-37542 (scFv, V domains shown)
VH: QVQLQESGPGLVKPSETLSLTCAVSGYSISEGYYWGWIRQPPGKGLEWIGSIYHTGFTYYNPSLKSRVTISVDTSKNQFSLKLSSVTAADTAVYYCARASIYTPPPEYFQHWGQGTLVTVSS
VL: DIQMTQSPSTLSASVGDRVTITCRASQSISSWLAWYQQKPGKAPKLLIYDASSLESGVPSRFSGSGSGTEFTLTISSLQPDDFATYYCQQSRIYSTFGGGTKVEIK
B9: scfv fragment of ADI-37543 (scFv, V domains shown)
VH: B8 VH with E31S, G36A, Y53F, T55S, Y59F
VL: B8 VL

Target: cynomolgus monkey CD73 antigen (cynomolgus monkey)
Test: ForteBio BLI, scFv

binding	Binder
binds	B1
binds	B2
binds	B3
binds	B4
binds	B5
binds	B6
binds	B7
binds	B8
binds	B9
